# In patent US7304062B2, “Peroxisome proliferator activated receptor alpha agonists” (Eli Lilly and Company, priority 2000, dated 2007):
# For at least one compound, name, drawing or mass did not settle the structure.
# System: Male Syrian hamsters on high-fat cholesterol-rich diet
# Assay: LDL-cholesterol, total-cholesterol and triglyceride lowering in hypercholesterolemic Syrian hamsters
# Assay type: in vivo, hamster
# Conditions: 14 days, fenofibrate 200 mg/kg, compared to vehicle
compound,measurement,value
CC(C)OC(=O)C(C)(C)Oc1ccc(C(=O)c2ccc(Cl)cc2)cc1 [fenofibrate],total-cholesterol and triglyceride lowering effects,did not show significant efficacy
